According to paper PMC4511450:
No constants are given. Whether binding was seen depends on the method and setting. Binding seen in cells or lysates may run through a third protein. Some entries that bind do so weakly or less than the wild type. Where a sequence is shown, tags or fusion partners need not be part of it.

T1: APP (endogenous, adult mouse forebrain) (mouse (endogenous in adult mouse forebrain)), P12023
T1 chain: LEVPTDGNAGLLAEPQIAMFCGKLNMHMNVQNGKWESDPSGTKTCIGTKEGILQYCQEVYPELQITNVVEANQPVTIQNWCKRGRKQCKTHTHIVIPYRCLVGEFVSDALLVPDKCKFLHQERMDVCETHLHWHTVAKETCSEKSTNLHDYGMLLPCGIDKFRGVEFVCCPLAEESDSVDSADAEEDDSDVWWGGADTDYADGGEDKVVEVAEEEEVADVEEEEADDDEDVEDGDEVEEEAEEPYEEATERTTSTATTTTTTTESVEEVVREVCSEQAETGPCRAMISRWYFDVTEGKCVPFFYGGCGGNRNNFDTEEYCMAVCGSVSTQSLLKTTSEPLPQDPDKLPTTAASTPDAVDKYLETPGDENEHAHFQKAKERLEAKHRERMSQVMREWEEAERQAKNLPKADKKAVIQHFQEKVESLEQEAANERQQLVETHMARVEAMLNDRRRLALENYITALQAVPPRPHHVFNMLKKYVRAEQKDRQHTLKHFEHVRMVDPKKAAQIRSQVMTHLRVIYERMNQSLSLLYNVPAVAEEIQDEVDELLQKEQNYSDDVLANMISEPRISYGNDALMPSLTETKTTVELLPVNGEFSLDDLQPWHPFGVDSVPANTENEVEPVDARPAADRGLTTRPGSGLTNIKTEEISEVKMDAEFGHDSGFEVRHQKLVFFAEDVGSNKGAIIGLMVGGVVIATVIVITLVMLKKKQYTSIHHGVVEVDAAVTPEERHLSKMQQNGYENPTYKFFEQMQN

T2: Synaptotagmin-1 (endogenous, adult mouse forebrain) (mouse (endogenous in adult mouse forebrain)), P46096
T2 chain: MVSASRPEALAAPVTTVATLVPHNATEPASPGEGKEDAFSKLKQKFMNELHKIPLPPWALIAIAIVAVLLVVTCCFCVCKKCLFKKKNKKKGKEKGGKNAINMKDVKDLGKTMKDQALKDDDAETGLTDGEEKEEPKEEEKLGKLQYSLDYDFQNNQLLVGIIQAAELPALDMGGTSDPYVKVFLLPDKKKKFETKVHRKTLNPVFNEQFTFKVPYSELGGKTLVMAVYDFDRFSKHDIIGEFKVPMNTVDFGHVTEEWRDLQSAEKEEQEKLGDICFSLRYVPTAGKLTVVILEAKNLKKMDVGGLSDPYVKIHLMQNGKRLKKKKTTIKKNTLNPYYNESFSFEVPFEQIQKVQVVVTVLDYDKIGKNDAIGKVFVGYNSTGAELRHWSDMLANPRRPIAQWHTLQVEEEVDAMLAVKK


Tests used:
[1] = biological target: T1, APP (endogenous, adult mouse forebrain) …; experiment: co-IP; adult mouse forebrains extracted with 1 % Triton X-100; IP with anti-APP C66 or anti-Syt antibodies, control IgG; Western blot; endogenous proteins; settings: remark: other sources report otherwise
[2] = biological target: T2, Synaptotagmin-1 (endogenous, adult …); experiment: as above; settings: remark: other sources report otherwise

| binding [1] | binding [2] | Binder |
| --- | --- | --- |
| binds | – | Synaptotagmin-1 (endogenous, adult mouse forebrain), P46096 1-421 (protein) MVSASRPEALAAPVTTVATLVPHNATEPASPGEGKEDAFSKLKQKFMNELHKIPLPPWALIAIAIVAVLLVVTCCFCVCKKCLFKKKNKKKGKEKGGKNAINMKDVKDLGKTMKDQALKDDDAETGLTDGEEKEEPKEEEKLGKLQYSLDYDFQNNQLLVGIIQAAELPALDMGGTSDPYVKVFLLPDKKKKFETKVHRKTLNPVFNEQFTFKVPYSELGGKTLVMAVYDFDRFSKHDIIGEFKVPMNTVDFGHVTEEWRDLQSAEKEEQEKLGDICFSLRYVPTAGKLTVVILEAKNLKKMDVGGLSDPYVKIHLMQNGKRLKKKKTTIKKNTLNPYYNESFSFEVPFEQIQKVQVVVTVLDYDKIGKNDAIGKVFVGYNSTGAELRHWSDMLANPRRPIAQWHTLQVEEEVDAMLAVKK |
| – | binds | APP (endogenous, adult mouse forebrain), P12023 18-770 (protein) LEVPTDGNAGLLAEPQIAMFCGKLNMHMNVQNGKWESDPSGTKTCIGTKEGILQYCQEVYPELQITNVVEANQPVTIQNWCKRGRKQCKTHTHIVIPYRCLVGEFVSDALLVPDKCKFLHQERMDVCETHLHWHTVAKETCSEKSTNLHDYGMLLPCGIDKFRGVEFVCCPLAEESDSVDSADAEEDDSDVWWGGADTDYADGGEDKVVEVAEEEEVADVEEEEADDDEDVEDGDEVEEEAEEPYEEATERTTSTATTTTTTTESVEEVVREVCSEQAETGPCRAMISRWYFDVTEGKCVPFFYGGCGGNRNNFDTEEYCMAVCGSVSTQSLLKTTSEPLPQDPDKLPTTAASTPDAVDKYLETPGDENEHAHFQKAKERLEAKHRERMSQVMREWEEAERQAKNLPKADKKAVIQHFQEKVESLEQEAANERQQLVETHMARVEAMLNDRRRLALENYITALQAVPPRPHHVFNMLKKYVRAEQKDRQHTLKHFEHVRMVDPKKAAQIRSQVMTHLRVIYERMNQSLSLLYNVPAVAEEIQDEVDELLQKEQNYSDDVLANMISEPRISYGNDALMPSLTETKTTVELLPVNGEFSLDDLQPWHPFGVDSVPANTENEVEPVDARPAADRGLTTRPGSGLTNIKTEEISEVKMDAEFGHDSGFEVRHQKLVFFAEDVGSNKGAIIGLMVGGVVIATVIVITLVMLKKKQYTSIHHGVVEVDAAVTPEERHLSKMQQNGYENPTYKFFEQMQN |
